Results on 1 molecule are retold here after publication PMC5998130.

These are yes or no findings as the source states them, for the method shown. In cells and extracts the contact can be indirect. Some entries that bind do so weakly or less than the wild type.

The target of the experiment is Estrogen Receptor alpha (ERα) (human (endogenous in MCF7, human PDX tumours and human breast tumours)), P03372. The experiment in a line: proximity ligation; PLA in methanol-fixed MCF7 cells with primary antibodies against ERα and the partner; untreated cells, and cells treated with vehicle or 100 nM OHT (2 h, 6 h). The following applies: remark: other sources report otherwise.

B1: FOXK1, P85037 1-733 (protein)
chain: MAEVGEDSGARALLALRSAPCSPVLCAAAAAAAFPAAAPPPAPAQPQPPPGPPPPPPPPLPPGAIAGAGSSGGSSGVSGDSAVAGAAPALVAAAAASVRQSPGPALARLEGREFEFLMRQPSVTIGRNSSQGSVDLSMGLSSFISRRHLQLSFQEPHFYLRCLGKNGVFVDGAFQRRGAPALQLPKQCTFRFPSTAIKIQFTSLYHKEEAPASPLRPLYPQISPLKIHIPEPDLRSMVSPVPSPTGTISVPNSCPASPRGAGSSSYRFVQNVTSDLQLAAEFAAKAASEQQADTSGGDSPKDESKPPFSYAQLIVQAISSAQDRQLTLSGIYAHITKHYPYYRTADKGWQNSIRHNLSLNRYFIKVPRSQEEPGKGSFWRIDPASEAKLVEQAFRKRRQRGVSCFRTPFGPLSSRSAPASPTHPGLMSPRSGGLQTPECLSREGSPIPHDPEFGSKLASVPEYRYSQSAPGSPVSAQPVIMAVPPRPSSLVAKPVAYMPASIVTSQQPAGHAIHVVQQAPTVTMVRVVTTSANSANGYILTSQGAAGGSHDAAGAAVLDLGSEARGLEEKPTIAFATIPAAGGVIQTVASQMAPGVPGHTVTILQPATPVTLGQHHLPVRAVTQNGKHAVPTNSLAGNAYALTSPLQLLATQASSSAPVVVTRVCEVGPKEPAAAVAATATTTPATATTASASASSTGEPEVKRSRVEEPSGAVTTPAGVIAAAGPQGPGTGE
B1: the binding result was “binds”.
